The labels stand for the following.
T1: HA-EhRacM (EhRacM tagged with HA at the N-terminus) (Entamoeba histolytica) (UniProt C4M9S3)
T1 sequence: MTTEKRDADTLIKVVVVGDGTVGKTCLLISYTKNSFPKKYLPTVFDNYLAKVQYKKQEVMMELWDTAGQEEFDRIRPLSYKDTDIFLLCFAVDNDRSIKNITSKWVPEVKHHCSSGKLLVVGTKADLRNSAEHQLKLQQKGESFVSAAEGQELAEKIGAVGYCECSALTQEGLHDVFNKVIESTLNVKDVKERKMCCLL

B1: Rho small GTPase (EHI_070730) (protein, UniProt Q24816 1-194)
chain: MSEKPTSIKLVVVGDGAVGKTCLLISYSIRKFPEDYIPTVFDNYVVSLTAGTRQIQLALWDTAGQEEYDQLRPLSYSSASIFLICFSVTSSVSYDNVITKWHPEVIHFAPKVPIILVGTKLDTRNDPAIVKRLTEQGMTVINTAKGEELKNRIKAVKYIECSAKTSENLKTVFDEAVKTVLMNKPQQRSKCALL
B2: DH domain-containing protein (RhoGEF) (EHI_158230) (protein, UniProt C4M2E2 1-738)
chain: MQSIDQYLLPDVSLSSKELAIVTQLNTLISDPSSRENGLSFILKRISQPMFREFLLRVHPQLYTHLLKSSNDDFGTLQVSLFIVHALSIYPHFINLLVKYDITVFEDLKSLLQSRDDPSITAHTLEIVLNASTSIEDKTLLQSLIDPLLSFFRGNVQHRNLAGKCLCILLTCSANQISFVKQEGIYAILNILYSHVYDEQLLASAMLLQLIKTPNKELAVKLRKIVILNNVLQLIKPLISTGGQLTIRAWQISALLTLATGYEKRFIQSGIFFDAVELIGDQNDKIKETLPCALTVILAVTIDSNLLDVCRGFSLADRLRNCVEHLNQYEPSLRLVILNIIRNLAVDEGLREELQTVKIANYLKTSLNDNNSLEKARIEILTLLKENIEPTSGINIGRDSVEVKRFADMNMKKTQAKQIVEEIVTTEQEYCEHLKCVVEEIKPNFQLVLSDKEIYDIFSNIEDVSNYQQKFLKVLQERWEQQKEREWVEISDLFENYFCEEMKNIYKEYMTRCNQANDYYQTLKKESKKVRKVALDLGIKRIYIPTFLIYPIQRLPRYLLLLETLSKNVPENYEEHNKLLSVKDRANKIVNWLNEEIRKYENEVSLKQWTNKLELSPVNNRIFIAEFHQVMVKASKMVNVCSIILFNDIVIFLKRKKNKDKILNQINLIDLKVFEVEDEKTTFMLVFPSPTNNNEDQRYMLYLSNDDEMKAIFSTLKKAVNLAKTQKKNMISRSVSLI
B3: Isopentenyl phosphate kinase (EHI_178490) (enzyme, UniProt C4LUR5 1-259)
chain: MNSIPNLIILKIGGSYLTEKNRADGPPILENIHMFSKCLAQFIHSHPKQPIILAHGAGSFGHIPAATYHLAEGFHKTGVIECEMAMQELSSIIVNSLIKEGISAIPFHPFNFVVTENKRIVDMYLQPLQMLVNQGVIPVVHGDVAMDIMQGSCILSADQLVPELAIRFGCHRIGFICNSPVLNDKREVIPLINEQNYESIKTFLHGCKGIDVTGGMAGKINELMIAATKHNIQSYVFKGTKECLELFLEGNDVGTKICQ
B4: Ras family GTPase (EHI_004860) (protein, UniProt C4M081 1-183)
chain: MPQTHHFKIVLLGSGSVGKSAIATRYVKNTFIGRYDPTIEETFSKTIEIDGTTVQLEIYDTAGTEQFRTLQDLYMKEGDGFILVFSLVSVATFNDLSSIYGHINEVKNSMEKKFVPIVIAGNKCDLDNRTVTTEQAQEFANNNGCHFMETSAKTQKNINEMFEYLTRQLIEHLPAKKQKCLIL
B5: Ras GEF (EHI_079250) (protein, UniProt C4M7R6 1-474)
chain: MSMEYTEIKQIISEKDILYTIKSCFIGDSSTIEDRKVLMWNCFLALVLNIKGKIGRVTLENYDNFVNRNSSYFPFKNVTIAVVVFNSQDDSYKNIKNWHGEVSRYCGSYDILQTIIVGMFPDETYHQNLPENIQMAISSIPNSKFFYYYPSGTDEFRKVFFSTVVKIRELLFSDEKLNEIQSMKQKRTVVQKKIIAPQVTSTISSSMNRKLKLASRNEDELVILLKAIVLGDESVSNSCHRITQHILGLPEAIGDDIYEYVWIPQHLIQKENMTIRLRMDVYNHNIPSGKSYTPYFNTLISIIVFRYDDKESFKNVVNWYQETQRYSNLQSNHYFIVGCQYNDTEQIIKDQDTENLLNYISKQKEIQFFKVTGSNWDDLTNKFFSFVDDVCRIEFSKEFLEQCASLTKNTKHTLTLDNTQHTNDRNKQYRPFILDEENSNIERDEESGSLLGRERNEEPMEFEYSTDSCCCILF
B6: Proteasome regulatory subunit, putative (EHI_005870) (protein, UniProt C4M2M2 1-300)
chain: MPEATIIIIDTSDYMRNGDYTPSRMEAQIEAVQAITSGRLRKNPENHVGFIAAGSESKRILVTLTGDFGKILSGLHEAKIGGSSDFKQALLVAKLALANRVDKIYTQRIILFVGSPLNINSDEAQTMVNLLKKSNIALDIVSFGEVVDNAPVIELFPSQMGDDCTLVTVPAGPHILLDMISKTNIIMRDGGLNTFDPEFDPEYAAAIRASMGDVNGGTEFYDEDAALRAAIAASLADYENLQTTNVQESKKEEQKEMTMEEEIEEAIKMSLEDNAKSNQSKEEKKEENDDKKMEEDKKNK
B7: Rab-GAP TBC domain-containing protein (EHI_069260) (protein, UniProt C4LWL4 1-350)
chain: MSIKEELEKRMKVLQKKYPNSYVQKFLSSFTRQTTFEGNKSKIYDIIEDLKKGDKRKLYFDCSNGVPKELRAPVWYCMATERCSYEEIIQIKSKKLYMEYWSEAYECEIFDLNKKQARTIDVDVVRLFPEGYKEIFKHEEVRRRIRRIKRMYECHFPNPGYFQGMGDIVAVFFVIFSEYYINEFSIDNYLKTDNEILDTIECATYVLLIYMMKNIYCECKTIAGVKEFHPESLWREIVKFYTLKDKNFNIKYDEFIIKQQIYKILVCFFARDLNIHLTSVIYDGLICGTCCSEGKVFNGIIKLAIAFIEMIKQQGVDLGDLYSFNKESHKFFETITESKTSQLIAIAWYL
B8: RasGAP (EHI_001910) (protein, UniProt C4M5K5 1-426)
chain: MSFFKAHYTYNPNGDKYKFDQLLFVRDSEFLRCYCAEFVKGKMAPECNTNARLLVEYFNVHGKLLDLMKEVAKREIETTNAETQVFRGNTSFTRLYGEYCHLCLLPYLRAVTKEVIQLLINEDTKLDPDALNSPELENHKESMDTFCKLAHMFGTKLVDCVHLLPSHFHQLLRFISVEVGNKKSVKSTPQNTFNLLFFIRTVFPVFHAPQHVMDTIQPPSPEMAKRLTAFSKTCQSLLNETTTSSSIPLDIANFMTSSASKLFEMFTHPRSGYMTEKSGLDFSLQANAHKNIVELVRSNIEPLTALMTRDVQALKDALKSEKNEDSVMTEMQQSLEFCSNTYSERLQAVEDEITDLNDEIEKYKAQLKAVQKAIEDEDELTAKLQEEINRLENDSPKANTPTASPRSSRRDSNSDAVLRDHSSEDI
B9: Rap/Ran GAP (EHI_197320) (protein, UniProt C4LVE8 1-573)
chain: MYSEGNIIINEKSIKWIEQMSMIETTDDGKYLGIFEDFLRHVDSKEFNEKLTLFNEGKGTKIVDKILKVCVEPNIPIENVSKIITCLAFITNNNFKTKEYLYEHNIIEGIENLLIQPEIVKIFEELFSTFEYERKVTTQLTSVQFVTSLLSGLLTLVTNCEDIQKEISEKGIIELLLQLLSNGKQAPNELMTIYGSIIAIIDSYIEKSIKLLPQNTINILKELIFEAQAKGIRIMAIKALTDISDLKLEDYRSIFDELITPIEKEIERINDEFIKQSLLLLFRSICNDEKIESYRFIPFLNSLIEMTQSPIKETMICAIEAINSIALRDDTLNILSNKVEDIVKRIQGIEGEGYSSLMLLLTNMGRTDETIRKYKTYKVTEQIIEYIKIHPHDERALLMSLSVINSISVLHENRDYLTFDLNIFEVLNDWYNVSTNQVIIFNIQQIISRLILNSSLRAEHFMNLPTAINSIIETAGYTVRLIKEKRTPQTSTREVRDVRVAYEATRILCNLINLKSEYANTIMKDPYVIYAILDLIHSHYQILKDEGNYALNRLKQYEIITDDDIKKAEASRI
B10: Rho GDI (EHI_147570) (protein, UniProt C4M6L6 1-175)
chain: MSAADIVKNEKDPSLVAYLKSLGIDPDYVPPKDDPRRVVISEFAVLFKEHDPVILKLNTEEDMEKAKKTPIIIKEGAEFKMRVTFRVQHQPVLGLRILNTVSKLGKQVASDEEMLGSYPPKNEFNALELPKNDWNEAPTGMLARGEYKSNVKFYDDDKVTHLQFDYLIKIAKDWD
B11: DUF5857 domain-containing protein (EHI_177500) (protein, UniProt C4LY53 1-214)
chain: MRFKTARKAGVYLQRGPIEYQSKKNSKRVTSVNEGDIVKPKVIEVCIPVSCENNEILDTNCVFNTSYKIACGYVSENKCTPISIKKPCKTKKNVIYISSKRKGKGTKIYNIKAFEDSHCLKPYQGFTENIINCKFNNLKTKKFGCNPENEISVGGICECKNCRTENIKTNIKSNDQLKIKRSEIKFGYNPWFCFFIPGLVVIVVVYFFTHKKPY
B12: DUF2807 domain-containing protein (EHI_112850) (protein, UniProt C4M9M4 1-396)
chain: MTPFIGEEVANLIRYCDDIQSLALVSKKYKEKIELHKEENYYNKEVFEDENLEVPPTTKVVRIKFGSGWYVRAFTTLAIGIKDLKLEKLIIELHTPLLVFFDKLLQFIPENTPIILEVHGLDEVIVEKYVINPQIKIGGFNSKINESLIQKKAFVLPERITTPSGVTRTYLSFEASVFDFYSAQLWKLYFPMNLKLKASGEHDKILKMKSFIFNSILITGKLKTIDLHAKNISIIRSYVPVDSCEELEVEQPFGFPEYVAKNKLKKLYIQYSKNITTIDLKAAESMNIVDIVCCDNLKEIKAENVLLMKVIDSPLQNIHLKTVQQLTLFGVNNVSVEGSIDDIQSDGKCFVNGTLSQTIKPIQSIDRKSVMIKFLPIYVVVLLIILGGIKLILEVH

No constants are given. Whether binding was seen depends on the method and setting. In cells and extracts the contact can be indirect. Here binding means that the protein was enriched with, or labelled near, the bait; the list need not be complete. Sequences can lack the tags named with a protein.

This experiment addresses T1, HA-EhRacM (EhRacM tagged with HA at the N-terminus) (Entamoeba histolytica). The experiment is described as follows: affinity purification with mass spectrometry; trophozoites cross-linked with DSP (RT, 30 min), lysed in 50 mM Tris-HCl pH 7.5, 150 mM NaCl, 1% Triton X-100; precleared with Protein G Sepharose; HA-tagged bait captured on anti-HA agarose (clone HA-7) at 4°C for 3.5 h, eluted with HA peptide …; compared with the pEhEx-HA mock strain.
For the molecule B1, the binding entry is “binds”.

With B2, the binding result is on record as “binds”. Turning to B3, the binding result is “binds”.

As for B4, the binding result is given as “binds”. With B5, the binding result is given as “binds”. For the molecule B6, the binding result is given as “binds”. Take B7: the binding result is “binds”.

On to B8, for which the binding result is “binds”. The result for B9 reads “binds”; that for B10, “binds”. Consider B11, for which the binding entry is “binds”. The entry for B12 is “binds”.

The record behind these values is PMC11560011.
